Measurements published in patent US20230407367, “INTRINSICALLY DISORDERED PROTEINS FOR EXTRACTION OF NUCLEIC ACIDS” (published 2023).
A negative result means that nothing was seen under these conditions. Tags and fusion partners may be left off the protein sequences shown.

Experiments:
Experiment in all cases: EMSA
[1] = system: T1, E3 ELP [(VPGXG)10-GKG]8 (synthetic construct); settings: pH 6 citrate/Na2HPO4, room temperature, below Tt, up to 1000 uM E3; no appreciable binding; purified recombinant protein; single-stranded DNA
T1 sequence: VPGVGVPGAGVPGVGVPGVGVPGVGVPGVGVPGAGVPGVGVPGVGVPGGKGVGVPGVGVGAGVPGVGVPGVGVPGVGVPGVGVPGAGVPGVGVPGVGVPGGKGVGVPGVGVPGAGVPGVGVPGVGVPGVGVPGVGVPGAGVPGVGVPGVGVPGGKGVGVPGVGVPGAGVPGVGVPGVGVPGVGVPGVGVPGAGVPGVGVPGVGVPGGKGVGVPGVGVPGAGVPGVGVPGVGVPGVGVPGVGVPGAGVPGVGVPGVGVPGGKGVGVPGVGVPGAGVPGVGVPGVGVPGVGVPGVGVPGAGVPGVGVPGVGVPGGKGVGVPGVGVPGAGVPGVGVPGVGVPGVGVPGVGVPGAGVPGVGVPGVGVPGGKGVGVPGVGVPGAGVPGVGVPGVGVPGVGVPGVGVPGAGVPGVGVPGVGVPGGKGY

[2] = system: T2, H-24 His-ELP (synthetic construct); settings: pH 9 100 mM Tris 4 C at 100 uM; also none at pH 8 with 300 mM NaCl; purified recombinant protein; single-stranded DNA
T2 sequence: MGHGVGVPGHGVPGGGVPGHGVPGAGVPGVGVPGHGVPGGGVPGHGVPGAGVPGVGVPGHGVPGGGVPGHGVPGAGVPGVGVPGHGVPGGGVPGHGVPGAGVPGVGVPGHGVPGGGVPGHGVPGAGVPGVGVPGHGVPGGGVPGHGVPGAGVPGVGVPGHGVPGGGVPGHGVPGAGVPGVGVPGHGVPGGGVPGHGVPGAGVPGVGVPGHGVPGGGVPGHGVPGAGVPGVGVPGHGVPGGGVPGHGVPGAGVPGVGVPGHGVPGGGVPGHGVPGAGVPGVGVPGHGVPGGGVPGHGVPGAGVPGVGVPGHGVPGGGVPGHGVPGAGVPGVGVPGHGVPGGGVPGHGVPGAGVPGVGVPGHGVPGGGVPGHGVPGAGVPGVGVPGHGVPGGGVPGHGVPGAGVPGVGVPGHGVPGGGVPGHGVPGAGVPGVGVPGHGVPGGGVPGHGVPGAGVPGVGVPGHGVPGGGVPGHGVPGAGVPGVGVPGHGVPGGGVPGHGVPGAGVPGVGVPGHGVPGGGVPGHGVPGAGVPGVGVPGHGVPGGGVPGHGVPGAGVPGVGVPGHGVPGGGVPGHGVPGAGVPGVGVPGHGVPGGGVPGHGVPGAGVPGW

[3] = system: T3, H-20 His-ELP (synthetic construct); settings: pH 9 100 mM Tris 4 C at 100 uM; also none at pH 8 with 300 mM NaCl; purified recombinant protein; single-stranded DNA
T3 sequence: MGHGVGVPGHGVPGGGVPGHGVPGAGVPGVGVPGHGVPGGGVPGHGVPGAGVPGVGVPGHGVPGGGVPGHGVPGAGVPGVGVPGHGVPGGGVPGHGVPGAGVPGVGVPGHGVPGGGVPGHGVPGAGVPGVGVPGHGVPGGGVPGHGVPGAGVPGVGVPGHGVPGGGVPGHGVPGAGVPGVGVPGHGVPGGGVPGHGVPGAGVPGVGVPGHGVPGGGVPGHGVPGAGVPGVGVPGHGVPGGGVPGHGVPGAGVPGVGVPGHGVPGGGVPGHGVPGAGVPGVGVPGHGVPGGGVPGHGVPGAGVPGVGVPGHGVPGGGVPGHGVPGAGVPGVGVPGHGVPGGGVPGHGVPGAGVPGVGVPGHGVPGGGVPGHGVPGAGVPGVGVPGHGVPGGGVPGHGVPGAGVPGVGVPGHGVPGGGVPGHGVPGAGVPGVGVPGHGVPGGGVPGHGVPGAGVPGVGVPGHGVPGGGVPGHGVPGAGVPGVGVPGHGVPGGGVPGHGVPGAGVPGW

Measured: binding result

TTTTTCCTAGAGAGTAGAGCCTGCTTCG [ssDNA 28 nt]
no binding: all assays above
